Measured data: PubChem BioAssay AID743454 (Peter MacCallum Cancer Centre, 2014)
This is one part, drawn at random, of about 18,000 reagents tested. Over the whole deposit, 450 (2.5%) are marked active. 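Single biological run; no consistent viability z cut-off exists, so the class columns, not z-scores, define the calls.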 Reagent sequences are not shown.

Assay: 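Genes whose loss kills vorinostat-resistant colon cancer cells under vorinostat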 (primary screen)
Cell system: human HCT116-VR colon cancer cells, selected for vorinostat resistance
Reagents: siRNA pool against human genes, 40 nM siRNA pool
Time to read-out: vorinostat for 24 h, read-out about 72 h after transfection
Treatment: vorinostat at 2.5 µM final
Read-out: 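Two measures, CellTiter-Fluor viability and luminescent caspase 3/7 activity, each as fold change against same-plate mock wells, mean of duplicates, then screen-wide robust z-score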
Direction: viability robust z-score: higher = more viable cells than screen typical; caspase robust z-score: higher = more caspase 3/7 activity than screen typical
Call rule: 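a knock-down is a hit when classed RV1 or RV2 for lowered viability, or CA1 or CA2 for caspase activation; those lethal without drug were dropped; hits were retested singly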

Target gene	viability hit class	caspase hit class	viability robust z-score	caspase robust z-score	Outcome
TATDN2 (TatD DNase domain containing 2)	no change	no change	1.02	-0.02	inactive
SMIM11 (small integral membrane protein 11)	no change	no change	-0.57	-0.72	inactive
ICAM4	no change	no change	-0.74	-0.08	inactive
OR1J1 (olfactory receptor family 1 subfamily J member 1)	no change	no change	0.29	-0.79	inactive
ITGAD (integrin subunit alpha D)	no change	no change	-0.2	-0.38	inactive
WASHC5 (WASH complex subunit 5)	no change	no change	-0.88	-0.41	inactive
CELSR2 (cadherin EGF LAG seven-pass G-type receptor 2)	no change	no change	-0.02	0.13	inactive
C5orf46 (chromosome 5 open reading frame 46)	no change	no change	1.74	-0.36	inactive
PKD2L1	no change	no change	0.4	2.88	inactive
TMEM225 (transmembrane protein 225)	no change	no change	0.64	0.19	inactive
ULBP2 (UL16 binding protein 2)	no change	no change	0.36	-0.74	inactive
PI4KA (phosphatidylinositol 4-kinase alpha)	no change	no change	-1.07	0.24	inactive
MIS18BP1 (MIS18 binding protein 1)	no change	no change	0.94	-0.42	inactive
CLECL1 (C-type lectin like 1)	no change	no change	-0.2	-0.51	inactive
MTHFSD (methenyltetrahydrofolate synthetase domain containing)	no change	no change	0.34	0.07	inactive
TCTN1 (tectonic family member 1)	no change	no change	0.16	1.1	inactive
CENPN (centromere protein N)	no change	no change	-0.44	0.38	inactive
NCOA6 (nuclear receptor coactivator 6)	no change	no change	-1.66	3.86	inactive
E2F7 (E2F transcription factor 7)	no change	no change	0.64	-0.42	inactive
WASHC2A (WASH complex subunit 2A)	no change	no change	-0.52	-0.94	inactive

Already shown: an excerpt of the list.
Target gene	viability hit class	caspase hit class	viability robust z-score	caspase robust z-score	Outcome
PKD2L1	no change	no change	0.4	2.88	inactive
TMEM225 (transmembrane protein 225)	no change	no change	0.64	0.19	inactive
ULBP2 (UL16 binding protein 2)	no change	no change	0.36	-0.74	inactive
PI4KA (phosphatidylinositol 4-kinase alpha)	no change	no change	-1.07	0.24	inactive
MIS18BP1 (MIS18 binding protein 1)	no change	no change	0.94	-0.42	inactive

Continued.
Target gene	viability hit class	caspase hit class	viability robust z-score	caspase robust z-score	Outcome
LRRN3 (leucine rich repeat neuronal 3)	no change	no change	0.34	-0.92	inactive
EXOSC1 (exosome component 1)	no change	no change	-2.38	-0.86	inactive
CCDC86 (coiled-coil domain containing 86)	no change	no change	-1.92	0.98	inactive
RERE (arginine-glutamic acid dipeptide repeats)	no change	CA2 (caspase activation)	-0.16	7.68	active
PLEKHH1 (pleckstrin homology, MyTH4 and FERM domain containing H1)	no change	no change	-0.66	0.32	inactive
DAND5 (DAN domain BMP antagonist family member 5)	no change	no change	0.12	1.92	inactive
ANO7 (anoctamin 7)	no change	no change	0.28	-0.8	inactive
SOX18 (SRY-box transcription factor 18)	no change	no change	0	-0.03	inactive
ATG16L2 (autophagy related 16 like 2)	no change	no change	0.26	2.76	inactive
EEF2 (eukaryotic translation elongation factor 2)	no change	no change	-1.02	-0.84	inactive
SENP6 (SUMO specific peptidase 6)	no change	no change	0.15	-0.3	inactive
RASSF8 (Ras association domain family member 8)	no change	no change	-2.29	-0.02	inactive
SRC (SRC proto-oncogene, non-receptor tyrosine kinase)	no change	no change	-1.16	-0.72	inactive
WDR74 (WD repeat domain 74)	no change	no change	-1.48	-0.7	inactive
SLC9A4	no change	no change	1.88	-0.43	inactive
TCN1 (transcobalamin 1)	no change	no change	-0.15	0.18	inactive
SRPX2 (sushi repeat containing protein X-linked 2)	no change	no change	0.12	-0.88	inactive
POLR2J3 (RNA polymerase II subunit J3)	RV2 (reduced viability)	no change	-3.14	0.06	active
MRPL18 (mitochondrial ribosomal protein L18)	no change	no change	2.03	-0.9	inactive
